This is an account of results in PMC12756916.

No constants are given. Whether binding was seen depends on the method and setting. Some binding calls cover weakened binding; strength is not graded here.

The target in experiment [1] is block V of the repeats-in-toxins (RTX) domain of the adenylate cyclase (CyaA) protein from Bordetella pertussis (Bordetella pertussis) (UniProt P0DKX7). Briefly: dynamic light scattering; 1 uM RTX peptide in 20 mM glycine, 20 mM potassium acetate, 50 mM KCl, pH 5.6, 25 C; without multivalent cations, with saturating Ca2+ or with Tb3+; oligomeric state inferred from the hydrodynamic diameter; both purified.

For experiment [2] the target is unchanged. Put plainly: anomalous small-angle X-ray scattering (ASAXS); condensed aggregates from 20 uM RTX peptide, pH 5.6, with 0.5 mM Tb3+, 0.5 mM Lu3+ or an equimolar mixture of both (500 uM total); fitted with a uniform cylinder model; both purified.

With “block V of the repeats-in-toxins (RTX) domain of the adenylate cyclase (CyaA) protein from Bordetella pertussis (from UniProt P0DKX7 1529-1681) (domain or fragment)”, the binding entry in experiment [1] and in experiment [2] was “binds” throughout.
